Results: PubChem BioAssay AID493014 (National Center for Advancing Translational Sciences (NCATS), 2011)
In all, about 340,000 compounds went through this assay and about 170 (0.05%) were called active. Inconclusive means that the source gave no clear call. Such entries were picked first, then a sample of the others. Calls come from the whole dose curve; as a rule, active = well fitted inhibition curve with a large enough effect in the signal ratio, with a control signal flat (not every such curve was filed as active); inconclusive = small, poorly fitted or top-dose-only effect, or effect the other way, or a change in a side signal; inactive = flat fitted curve, though single readings scatter; the % refers to the signal ratio. Potencies beside an inconclusive call are fits to weak or partial responses and may not hold up.

Test: qHTS Assay to Find Inhibitors of Chronic Active B-Cell Receptor Signaling;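 for activity change, negative = inhibition: plate controls were basal doxycycline-induced cells for no effect and cells given 10 µM MG132 for full effect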
Conditions: ABC-DLBCL IkBa-CBG/CBR reporter, luminescence ratio (green luciferase fused to IkBa over red control in TMD8 lymphoma cells), 4 h; activity change, negative = inhibition: at 46.1 µM (top of the series) unless noted
Procedure, shortened: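 TMD8 ABC-DLBCL cells carrying doxycycline-inducible green luciferase fused to IkappaBalpha plus unfused red luciferase were exposed to compounds (up to 46 uM) for 4 hrs at 37C. Activity came from the overlap-corrected green/red luminescence ratio.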
Potency is the fitted concentration of half-maximal effect.

SMILES	activity change, negative = inhibition	Potency
CCN(CC)S(=O)(=O)c1cc(NC(=O)COc2ccc(C#N)cc2OC)ccc1C	inactive	–
Cc1cccc(Nc2nnc(SC/C(O)=C(\C#N)c3nc4ccccc4[nH]3)s2)c1	–	inconclusive: 29.1 µM [falling, single point]
CC(C)(C)NC(=O)CCCCCCCC(=O)NC(C)(C)C	inactive	–
CC(C(=O)Nc1ccccc1-c1ccccc1)N1CCN(S(=O)(=O)c2ccccc2)CC1 (stereo not drawn)	inconclusive: 7.16%	–
CC(C)(C)c1cc(C(=O)N/N=C/c2ccc(-c3ccccc3[N+](=O)[O-])o2)n[nH]1	inactive	–
Cc1ccc(-n2nnnc2-c2cnc3cc4c(cc3c2C)OCO4)cc1	inconclusive: 2.22%	–
COC(=O)C1=C(C)N(Cc2ccccc2)C(=NCc2ccccc2)N[C@H]1c1cccc(F)c1	–	inconclusive: 5.62 µM [falling, single point]
CCOC(=O)N1CCC(NC(=O)CS(=O)(=O)Cc2nc(-c3ccccc3C)oc2C)CC1	inconclusive: -1.41%	–
CCNc1nc(NCC)nc(SCCOc2ccc(C)cc2)n1	inconclusive: -3.58%	–
Cc1cc(C)n2nc(CCc3nc4nc(C)cc(C)n4n3)nc2n1	inconclusive: 2.81%	–
c1ccc(C2=NCCCN2)cc1	inactive	–
O=C(N/N=C/C1CC2CCC1C2)c1c[nH]c2ccccc12 (stereo not drawn)	–	inconclusive: 31.6 µM [falling, single point]
O=C(Nc1cc(=O)[nH]c2nc(-c3ccc(Cl)cc3)nn12)c1ccccc1	–	inconclusive: 11.2 µM [falling, partial curve]
NC(=O)C1CC(=O)N(c2ccc(OCc3ccc(Cl)cc3)cc2)C1 (stereo not drawn)	inconclusive: 24.5%	–
O=c1c2cnn(-c3ccccc3)c2ncn1Cc1ccccc1	–	inconclusive: 2.91 µM [rising, partial curve, poor fit]
O=[N+]([O-])c1ccc(C2CN=C(Nc3ccccc3)S2)cc1 (stereo not drawn)	–	inconclusive: 22.4 µM [falling, partial curve]
C=CCc1cc(Cl)ccc1OC(=O)Nc1cccc(Cl)c1	inconclusive: 13.9%	–
COc1ccccc1/C=C1\SC(=S)N(CCC(=O)Nc2cc(C)on2)C1=O	–	inconclusive: 3.55 µM [falling, single point]
Cc1ccccc1N1CN(Cc2ccco2)CNC1=S	inactive	–
CN1CCN(c2ccccc2NC(=O)COc2ccc(Cl)cc2)CC1	inconclusive: -12%	–
Cc1ccc(CNC(=O)c2coc(=O)c3ccccc23)o1	inactive	–

SMILES	activity change, negative = inhibition	Potency
O=C(Nc1ccc(F)c(Cl)c1)Nc1ccc(Cl)cn1	inconclusive: 7.25%	–
CCOC(=O)C1=C(C)OC(N)=C(C#N)C1c1cccs1 (stereo not drawn)	inconclusive: -8.13%	–
COCc1cc(C(C)=O)ccc1OC	–	inconclusive: 8.2 µM [falling, partial curve, poor fit]
O=C(O)CSc1nc(-c2cccs2)cc(C(F)(F)F)n1	inactive	–
COc1cccc(-c2nc(-c3ccccc3)no2)c1	–	inconclusive: 29.1 µM [falling, single point]
NNC(=O)c1ccc(Cn2cc(Br)cn2)cc1	inactive	–
COc1ccc(Nc2cc(C(=O)NCCCN3CCN(c4ccc(OC)cc4)CC3)c3ccccc3n2)cc1	–	inconclusive: 6.31 µM [rising, partial curve, poor fit]
CCCCS(=O)(=O)N1CCCC(C(=O)Oc2ccccc2)C1 (stereo not drawn)	inconclusive: -125%	–
COc1cc(Cl)ccc1S(=O)(=O)n1nc(C)cc1C	inconclusive: 5.8%	–
Cc1ccc(NC(=S)NC2CC3CCCC(C2)N3Cc2cccs2)cc1 (stereo not drawn)	inactive	–
Cc1nn(-c2ccccc2)c(=S)n1-c1ccccc1	inactive	–
Cc1ccc(S(C)(=O)=N/C=C2\C(=O)c3sccc3N(C)S2(=O)=O)cc1 (stereo not drawn)	inconclusive: 19.8%	–
Cc1cc(C)nc(SCC(=O)N/N=C/c2cccnc2)n1	inactive	–
COc1cccc(CCNC(=O)c2cccc(NC(=O)C3=C(C)OCCS3)c2)c1	inconclusive: -1.08%	–
COc1ccc2cc(C#N)c(SCC(=O)N3CC(=O)Nc4ccccc43)nc2c1	inconclusive: -26.6%	–
O=C(CCn1cnnn1)Nc1ccc(F)cc1	inconclusive: 241%	–
C[C@@H]1CN([C@@H](C)CO)C(=O)Cc2cc(NC(=O)Nc3cccc4ccccc34)ccc2O[C@@H]1CN(C)Cc1ccc(C(F)(F)F)cc1	inconclusive: 1.84%	–
COc1c(F)c(F)c(C(=O)Nc2ccc3oc(-c4ccncc4)nc3c2)c(F)c1F	inactive	–
Cc1cc(CN(C)C(=O)c2cc(COc3ccc(F)cc3Cl)on2)n[nH]1	–	inconclusive: 12.6 µM [falling, partial curve, poor fit]
Cc1ccc(-c2nc3cccnc3s2)cc1NC(=O)C1c2ccccc2Oc2ccccc21	inconclusive: 1.39%	–
O=C(COC(=O)CC12CC3CC(CC(Br)(C3)C1)C2)NC(=O)NCc1ccco1	inconclusive: 1.89%	–

SMILES	activity change, negative = inhibition	Potency
CCOc1ccc(CCNC(=O)CN2C(=O)NC(CCSC)C2=O)cc1OCC (stereo not drawn)	inconclusive: 0.474%	–
Cc1nnc(N/N=C/C(C)c2ccccc2)[nH]c1=O (stereo not drawn)	inconclusive: -0.349%	–
Cc1scc(C(=O)N/N=C/c2ccc([N+](=O)[O-])o2)c1C	inconclusive: -6.89%	–
COc1ccc(OC)c(NC(=O)CN(C)CCOc2ccc(Br)cc2)c1	–	inconclusive: 0.224 µM [falling, full curve, poor fit]
CC(OC(=O)Cc1ccsc1)C(=O)Nc1ccc(Cl)cn1 (stereo not drawn)	inconclusive: 46.2%	–
CCCc1nc2c(=O)n(C)c(=O)nc-2n(C)n1	inconclusive: -23.6%	–
O=C(c1ccco1)N1CCN(C(=O)c2ccc(COc3ccc4c(c3)CCC4)o2)CC1	inconclusive: 0.594%	–
COc1cc2ccccc2cc1C(=O)NC1CCCCC1	inactive	–
CCOC(=O)CSc1[nH]c(=O)cc(C)c1C#N	–	inconclusive: 0.411 µM [falling, full curve, poor fit]
O=C(Nc1ccc(Br)c(C(F)(F)F)c1)c1ccccc1	inconclusive: 7.13%	–
Clc1ccc(/C=N/Nc2ncnc3ccccc23)cc1Cl	–	inconclusive: 35.5 µM [rising, single point]
O=C(NCc1ccccc1C(F)(F)F)C1CC(c2cc(C(F)(F)F)cc(C(F)(F)F)c2)=NO1 (stereo not drawn)	inactive	–
O=C(/C=C/c1ccc(O)c(O)c1)c1ccc(S(=O)(=O)N2CCCCCC2)cc1	inactive	–
COc1ccccc1C1CC(c2cccc(NS(C)(=O)=O)c2)=NN1S(=O)(=O)c1ccccc1 (stereo not drawn)	–	inconclusive: 0.562 µM [falling, full curve, poor fit]
COc1ccc(C(NC(=O)C(C)C)c2ccc3cccnc3c2O)cc1 (stereo not drawn)	inconclusive: -6.62%	–
Cc1oc2cc3oc(=O)c(CC(=O)NCC(=O)N[C@@H](C(=O)O)c4ccccc4)c(C)c3cc2c1C	inactive	–
CCS(=O)(=O)c1ccc2c(c1)NC(=O)C(CCCl)O2 (stereo not drawn)	inconclusive: 22.2%	–
Cc1nn(C)cc1/C=N\NC(=O)c1ccc(Cn2cc(Cl)cn2)cc1	inactive	–
CC1=NN(C(=O)c2csc(C(C)C)c2)C(O)(C(F)(F)F)C1 (stereo not drawn)	inconclusive: -7.35%	–
COc1ccc(C(=O)NC(C(=O)N2CCc3ccccc32)C(C)C)cc1 (stereo not drawn)	inconclusive: 1.35%	–
CCCNCC1COc2ccccc2O1 (stereo not drawn)	inactive	–

SMILES	activity change, negative = inhibition	Potency
O=c1[nH]c(CN2CCN(S(=O)(=O)c3ccc(Cl)cc3)CC2)nc2cc(Cl)ccc12	inconclusive: 8.76%	–
Cc1ccc2oc(-c3cccc(NC(=O)c4cc(-n5cnnc5)ccc4Cl)c3)nc2c1	–	inconclusive: 1.03 µM [rising, full curve, poor fit]
O=C(O)CCCC(=O)Nc1cccc(C(=O)Nc2ccccc2C(=O)O)c1	–	inconclusive: 31.6 µM [rising, single point]
CCOC(=O)CSc1nsc(SCC(=O)OCC)c1C#N	inactive	–
C=C(C)CSc1nc2nc(C)cc(C)n2n1	inconclusive: 4.65%	–
CCc1ccc(NC(=O)CCn2nc(C)c(S(=O)(=O)N3CCCCC3)c2C)cc1	inconclusive: -14%	–
Cc1ccc(S(=O)(=O)N2CCN(C(=O)CCCOc3ccc(Cl)cc3C)CC2)cc1	inactive	–
CCCOC(=O)CSC1=C(C#N)C(c2ccccc2Cl)CC(=O)N1 (stereo not drawn)	inconclusive: -0.183%	–
O=C(CSc1nnc(-c2ccc(F)cc2)o1)c1ccc2c(c1)OCCO2	inconclusive: 3.09%	–
Cc1ccc(N=C2NC(=O)/C(=C/c3cccn3C)S2)c(C)c1	–	inconclusive: 3.16 µM [falling, partial curve, poor fit]
O=C(N/N=C/c1ccccn1)c1cccs1	–	inconclusive: 35.5 µM [rising, single point]
Nn1c(SCc2cccc(C(F)(F)F)c2)nnc1-c1ccco1	inactive	–
CCn1c2ccccc2c2cc(NC(=O)COC(=O)Cc3cn4ccsc4n3)ccc21	inconclusive: -4.42%	–
O=C(Nc1nnc(SCc2ccccc2)s1)c1cc2c(s1)CCCC2	inconclusive: 29.6%	–
N#C/C(=C\c1cn(Cc2ccc(F)cc2)c2ccccc12)C(=O)NCc1ccco1	inconclusive: 1.42%	–
CC(=O)c1cccc(NC(=O)CSc2nnc(C(C)N(C)C)n2-c2ccc(F)cc2)c1 (stereo not drawn)	inactive	–
CCOc1ccc(C(C)(C)C)cc1S(=O)(=O)N1CC(C)OC(C)C1 (stereo not drawn)	inconclusive: -4.34%	–
Cc1cc(C)n(-c2nc3ccccc3nc2N2CCC(C)CC2)n1	inconclusive: 22.6%	–
CSc1nnc(C)c(=O)n1COC(=O)/C=C/c1ccc2c(c1)OCO2	–	inconclusive: 35.5 µM [falling, single point]
Cc1cc(NC(=O)CSc2ccc3ccccc3c2)no1	–	inconclusive: 0.00461 µM [rising, full curve, poor fit]

As entered above.
Value of N#C/C(=C\c1cn(Cc2ccc(F)cc2)c2ccccc12)C(=O)NCc1ccco1 under activity change, negative = inhibition: inconclusive: 1.42%
Value of O=C(Nc1nnc(SCc2ccccc2)s1)c1cc2c(s1)CCCC2 under activity change, negative = inhibition: inconclusive: 29.6%
Value of O=c1[nH]c(CN2CCN(S(=O)(=O)c3ccc(Cl)cc3)CC2)nc2cc(Cl)ccc12 under activity change, negative = inhibition: inconclusive: 8.76%
Value of CC(=O)c1cccc(NC(=O)CSc2nnc(C(C)N(C)C)n2-c2ccc(F)cc2)c1 (stereo not drawn) under activity change, negative = inhibition: inactive
Value of O=C(O)CCCC(=O)Nc1cccc(C(=O)Nc2ccccc2C(=O)O)c1 under Potency: inconclusive: 31.6 µM [rising, single point]
